The results are deposited in PubChem (AID588532; NCATS, 2011).

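HeLa cells carrying a glucocorticoid-responsive beta-lactamase reporter, read as the blue/green fluorescence ratio after 18 hours of agonist-mode exposure. Compounds were tested as a dilution series; the record's dose columns span about 0.00043 to 54,000 µM. The value is a fitted half-maximal activation concentration (AC50), so a lower number means a more potent agonist. Calls come from the dose-curve shape; inconclusive marks weak, poorly fitted, top-dose-only or side-signal effects, and all rows here are inconclusive.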

Values are in µM. Every entry below has the call inconclusive. Only part of the assay is shown, chiefly results filed as inconclusive. Potencies fitted to partial, single-point or poorly fitting curves are rough. Some entries filed as inconclusive have a full curve. The first word of each remark tells which way the curve ran; it can be opposite to the aim of the assay.

| structure | fitted potency (µM) | curve |
|---|---|---|
| `c1ccc(COCc2ccccc2)cc1` | 50.12 | side channel, falling, partial curve, poor fit |
| `OCC1CO1` (stereo not drawn) | 0.0282 | side channel, falling, full curve, poor fit |
| `CCCCNC(=O)n1c(NC(=O)OC)nc2ccccc21` | 1.778 | side channel, falling, full curve, poor fit |
| `CN1CSC(=S)N(C)C1` | 0.0126 | side channel, rising, full curve, poor fit |
| `CCCCCCN` | 0.0045 | side channel, falling, full curve, poor fit |
| `Nc1nc(N)nc(N)n1` | 0.0251 | side channel, falling, full curve, poor fit |
| `Nc1ncc([N+](=O)[O-])s1` | 0.0018 | side channel, falling, full curve, poor fit |
| `NS(=O)(=O)O` | 0.8913 | side channel, falling, full curve, poor fit |
| `Cc1ccc(S(=O)(=O)C(I)I)cc1` | 28.18 | side channel, rising, single point |
| `O=NN(CCO)CCO` | 7.08 | side channel, falling, partial curve, poor fit |
| `Oc1c(Cl)cc(Cl)c(Cl)c1Cl` | 11.22 | side channel, falling, full curve, poor fit |
| `Nc1c(Cl)cc([N+](=O)[O-])cc1Cl` | 50.12 | side channel, falling, single point |
| `N#Cc1cc(I)c(O)c(I)c1` | 1.413 | side channel, falling, full curve, poor fit |
| `Oc1c(I)cc(Cl)c2cccnc12` | 50.12 | side channel, falling, single point |
| `CCCCOCCO` | 0.5012 | side channel, rising, full curve, poor fit |
| `CN(C)c1ccc(N=O)cc1` | 17.78 | side channel, falling, partial curve, poor fit |
| `N#CSCSC#N` | 4.467 | side channel, falling, full curve, poor fit |
| `Nc1ccc(Nc2ccccc2)cc1` | 22.39 | side channel, falling, single point |
| `Clc1ccc(C(c2ccc(Cl)cc2)C(Cl)Cl)cc1` | 44.67 | side channel, falling, partial curve, poor fit |
| `NC(=S)Nc1ccccc1` | 11.22 | side channel, falling, full curve, poor fit |
| `CCOC(=O)C1OC1c1ccccc1` (stereo not drawn) | 63.1 | side channel, falling, single point |
| `Cc1ccc(Br)cc1` | 0.0007 | side channel, falling, full curve, poor fit |
| `CC(C)(Cl)Cl` | 7.08 | side channel, falling, partial curve, poor fit |
| `Clc1ccc(C(Cl)(Cl)Cl)cc1Cl` | 3.981 | side channel, falling, full curve, poor fit |
| `Nc1nc(N)c2nc(-c3ccccc3)c(N)nc2n1` | 10 | activator, full curve |
| `CC(=O)O[C@]1(C(C)=O)CC[C@H]2[C@@H]3C[C@H](C)C4=CC(=O)CC[C@]4(C)[C@H]3CC[C@@]21C` | 0.1122 | activator, full curve |
| `c1ccc2c(c1)Cc1ccccc1-2` | 39.81 | side channel, falling, partial curve, poor fit |
| `O=Cc1ccc(CO)o1` | 3.981 | side channel, falling, full curve, poor fit |
| `Clc1nc(Cl)c(Cl)c(Cl)c1Cl` | 10 | side channel, falling, full curve, poor fit |
| `S=C([S-])NCCNC(=S)[S-].[Mn+2]` | 0.0112 | side channel, falling, full curve, poor fit |
| `O=C1C(Cl)=C(Cl)C(=O)C(Cl)=C1Cl` | 0.0028 | side channel, falling, full curve, poor fit |
| `CC(C=O)Cc1ccc(C(C)(C)C)cc1` (stereo not drawn) | 0.5623 | side channel, falling, full curve, poor fit |
| `C[Si](C)(Cl)[Si](C)(C)Cl` | 22.39 | side channel, falling, full curve, poor fit |
| `CC(C)Cc1c(C(=O)O)c(C(F)F)nc(C(F)(F)F)c1C1=NCCS1` | 0.0251 | side channel, falling, full curve, poor fit |
| `CC(C)(C)[C@H](O)[C@H](Cc1ccc(Cl)cc1)n1cncn1` | 0.1 | side channel, rising, full curve, poor fit |
| `CCCCOCC(C)O` (stereo not drawn) | 177.8 | side channel, falling, partial curve, poor fit |
| `COc1cccc2c1C(=O)c1c(O)c3c(c(O)c1C2=O)C[C@@](O)(C(=O)CO)C[C@@H]3O[C@H]1C[C@H](N)[C@H](O)[C@H](C)O1` | 7.943 | activator, partial curve, poor fit |
| `O=Cc1c(Cl)cccc1Cl` | 17.78 | side channel, falling, partial curve, poor fit |
| `Cc1c2ccccc2c(C)c2c1ccc1ccccc12` | 44.67 | activator, single point |
| `O=C1c2ccccc2C(=O)C1(O)O` | 28.18 | side channel, falling, full curve, poor fit |

For reference, 4 entries once more:

O=C1c2ccccc2C(=O)C1(O)O read fitted potency 28.18 µM (side channel, falling, full curve, poor fit).
Oc1c(I)cc(Cl)c2cccnc12 read fitted potency 50.12 µM (side channel, falling, single point).
N#CSCSC#N read fitted potency 4.467 µM (side channel, falling, full curve, poor fit).
Nc1ccc(Nc2ccccc2)cc1 read fitted potency 22.39 µM (side channel, falling, single point).